The values below are quoted from earlier work in US20200172549A1, “NOVEL CHLORIN E6-CURCUMIN DERIVATIVES, PREPARATION METHOD THEREOF, AND PHARMACEUTICAL COMPOSITION CONTAINING THE SAME FOR TREATMENT OF CANCER” (DONG SUNG PHARM. CO., LTD., priority 2017, published 2020).

The conditions of this data set: cited from earlier work.

For `COc1cc(/C=C/C(=O)CC(=O)/C=C/c2ccc(O)c(OC)c2)ccc1O` [curcumin], the “Solubility in ethanol and DMSO” value (ethanol and DMSO) was “highly soluble”. The Solubility in water entry (water) was “insoluble”.
